Experimental data as given in patent publication US20140335539A1.
Results are given in words; binding and its absence hold for the method and conditions named. Some binding calls cover weakened binding; strength is not graded here.

Chains of the proteins cited; added tags and fusions are not shown. Lines headed by an entry give the natural chain unless they say otherwise; changes in a name come on top. Residues count along the entry.
UniProt Q92793, residues 587-666: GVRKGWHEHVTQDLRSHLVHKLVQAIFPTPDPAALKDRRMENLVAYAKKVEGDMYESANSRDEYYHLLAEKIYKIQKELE
UniProt P25963: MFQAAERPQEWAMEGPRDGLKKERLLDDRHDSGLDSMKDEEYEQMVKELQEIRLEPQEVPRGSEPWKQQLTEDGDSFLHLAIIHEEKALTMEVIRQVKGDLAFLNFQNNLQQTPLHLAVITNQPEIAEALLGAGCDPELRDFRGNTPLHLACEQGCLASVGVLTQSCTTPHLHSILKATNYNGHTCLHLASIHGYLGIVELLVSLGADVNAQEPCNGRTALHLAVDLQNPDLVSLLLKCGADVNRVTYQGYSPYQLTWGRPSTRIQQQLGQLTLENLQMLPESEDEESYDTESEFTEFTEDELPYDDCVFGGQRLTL
UniProt P16220, residues 87-146: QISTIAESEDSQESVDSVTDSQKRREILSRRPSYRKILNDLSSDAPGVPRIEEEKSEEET

Key:
[1] = target: complex containing p50 and p65 (p62(PB1)-p50 with AG-p65); experiment: anti-IκBα immunostaining at the same locations as the AG fluorescent foci, HeLaS3 cells
CBP = CBP (UniProt Q92793)

binding [1] | binding (CBP) | Substance
binds | – | IκBα (from UniProt P25963 1-317)
– | binds | CREB (from UniProt P16220 87-146)
